Assay results from the supplement of paper PMC3334620.
Whole data set: some 33,000 sequences, median “E-score (-0.5 to 0.5)” near -0.015, cut for the highest 2% near 0.3. The list shows a part of the results.

These sequences were tested against T1, Abf1 (UniProt P14164) (assay: PBM E-score (8-mer binding enrichment) (E-score (-0.5 to 0.5)); higher = stronger / more preferred TF binding). Conditions: protein concentration: 200 nM; construct: GST-full length.
T1 sequence: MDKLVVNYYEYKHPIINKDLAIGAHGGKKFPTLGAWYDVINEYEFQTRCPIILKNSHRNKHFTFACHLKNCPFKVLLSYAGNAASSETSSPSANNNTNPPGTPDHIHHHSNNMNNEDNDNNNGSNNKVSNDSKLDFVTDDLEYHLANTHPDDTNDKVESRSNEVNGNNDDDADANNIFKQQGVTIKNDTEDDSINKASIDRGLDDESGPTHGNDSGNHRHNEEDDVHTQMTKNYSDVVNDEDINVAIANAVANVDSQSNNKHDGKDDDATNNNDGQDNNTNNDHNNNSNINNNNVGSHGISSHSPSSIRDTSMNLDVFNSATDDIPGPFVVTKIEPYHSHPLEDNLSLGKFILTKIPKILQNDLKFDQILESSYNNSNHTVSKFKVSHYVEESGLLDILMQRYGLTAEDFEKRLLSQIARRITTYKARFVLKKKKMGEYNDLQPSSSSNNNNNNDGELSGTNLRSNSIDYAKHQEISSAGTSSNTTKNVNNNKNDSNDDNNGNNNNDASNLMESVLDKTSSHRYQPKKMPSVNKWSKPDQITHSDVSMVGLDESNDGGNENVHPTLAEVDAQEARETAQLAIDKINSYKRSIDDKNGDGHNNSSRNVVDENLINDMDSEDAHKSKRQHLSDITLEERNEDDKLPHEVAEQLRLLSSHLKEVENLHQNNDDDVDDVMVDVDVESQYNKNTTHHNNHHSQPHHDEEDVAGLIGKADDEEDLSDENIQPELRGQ
Procedure, shortened: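 Yeast transcription factors, full-length or as DNA-binding domains, were expressed with a GST tag using PURExpress in vitro transcription/translation. At about 100-200 nM they were applied to universal all-10-mer Agilent arrays, double-stranded by primer extension on fresh or once-stripped slides. Fluorescent anti-GST detected bound protein, and masliner normalised the scans. E-scores for ungapped eight-base words, pooled with reverse complements, came from the Universal PBM Analysis Suite.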

| Sequence | PBM E-score |
| --- | --- |
| ACCGCCCT | -0.266 |
| CAGATTGC | -0.156 |
| GGCGGGAA | -0.151 |
| CTCATCCC | 0.0517 |
| ACGACTAT | 0.298 |
| CACCTCAG | -0.141 |
| CGTGAGGC | -0.0028 |
| CAAGGCCA | -0.0916 |
| AGGGATCG | -0.119 |
| ATTTAGTC | 0.163 |
| GCCAACTA | -0.0314 |
| CCCGTGTC | 0.0681 |
| CAGAGGAA | -0.148 |
| TGTCGTAA | 0.103 |
| CCATTCGC | -0.219 |
| CGAAAAGC | -0.151 |
| GATTCCGC | -0.0622 |
| TCCAAGCA | -0.093 |
| CACGGTCG | -0.0181 |
| TCTAGGCA | -0.0845 |
| CTGTCTAA | 0.107 |
| CGCGAGGA | -0.201 |
| ACTTGTAA | 0.0799 |
| AAATAAGC | 0.0205 |
| GCTGGTCC | -0.0476 |

| Sequence | PBM E-score |
| --- | --- |
| AATATGTC | 0.19 |
| CGGTACCG | 0.0321 |
| ATCGTAAC | 0.258 |
| ACGGTGGG | 0.122 |
| GGCTTTTA | -0.236 |
| ACTAGGCC | -0.235 |
| TGACAACA | 0.273 |
| CACGCGAG | 0.024 |
| GAGCAGAC | -0.14 |
| AGAGGTGG | -0.0683 |
| AGTAAAGG | 0.0977 |
| CTTGGGGA | 0.00223 |
| ACTCGCAT | -0.0243 |
| CACATGCC | -0.142 |
| CCGTAAGG | 0.0402 |
| GTTAGATA | 0.0659 |
| ATGAACGA | 0.233 |
| TGACCAAA | 0.138 |
| AATAATCT | -0.00552 |
| ATTAGGCG | 0.105 |
| GGAACCTA | -0.112 |
| CGCCTACG | 0.0973 |
| ACTGAATG | -0.0197 |
| CTTGCCAA | 0.108 |
| TTCAGGAA | -0.105 |

| Sequence | PBM E-score |
| --- | --- |
| AAAGACCA | -0.228 |
| ATGACATC | 0.308 |
| CCCTAGGG | -0.227 |
| CACCTCAA | 0.039 |
| GAACCTCC | -0.0613 |
| GGTGACGA | 0.276 |
| CAGCTCCC | -0.286 |
| AATATCTA | 0.0256 |
| ATTAAACA | 0.161 |
| ATAACTTA | 0.163 |
| AGTGGAAT | -0.0881 |
| CGACTGAG | -0.101 |
| CATTAACA | 0.106 |
| GAGTTGTA | 0.0502 |
| CCCCGCCG | -0.279 |
| CGTTCCTC | -0.0477 |
| AACCGAGG | -0.216 |
| CACTGTTA | -0.0977 |
| CCTAACGC | -0.043 |
| CATCAGTA | 0.00401 |
| AGCTGAAT | -0.0697 |
| AACCGCAG | -0.0768 |
| CATCATGA | 0.298 |
| ACGACTCC | 0.0845 |
| ACCGCTGC | -0.252 |

| Sequence | PBM E-score |
| --- | --- |
| CATTGTAA | -0.0294 |
| ACAGCTGC | -0.201 |
| ATGATTGA | 0.346 |
| ATAACCTG | -0.178 |
| ACCACACA | -0.0452 |
| CTGACCTA | -0.0174 |
| GGAGGGCC | -0.0909 |
| CTCGCTTA | 0.0547 |
| ATCTGCCA | -0.101 |
| ATATGGTC | 0.15 |
| CCACGCAC | -0.0257 |
| AAATTGTT | 0.138 |
| CCTATCGC | -0.0336 |
| ATACCTCG | 0.0867 |
| AAGCGGGC | -0.381 |
| AATCGCGA | 0.176 |
| CCGATCCG | -0.0938 |
| TATGTCAA | 0.159 |
| AGACGGCA | 0.156 |
| ATGGCGCC | -0.174 |
| CCATAAGC | -0.0657 |
| AAGTCGCA | 0.135 |
| AAGAGAGC | -0.139 |
| CCGGTAAA | -0.2 |
| GGCAAGGA | -0.141 |

| Sequence | PBM E-score |
| --- | --- |
| CAGCACTG | -0.256 |
| CACTGTAG | 0.108 |
| ATAGATAA | 0.0196 |
| ACTCGACC | -0.157 |
| ACGAGCCA | 0.148 |
| GATTGACC | -0.049 |
| AGCCATCG | -0.147 |
| GACTGATC | 0.0853 |
| AAGCCCGC | -0.249 |
| GCCACAAC | -0.116 |
| CCACAGGC | -0.201 |
| AGAGCGCC | -0.104 |
| AGTACCGA | -0.144 |
| AGACATTC | 0.0909 |
| CCAAAGAA | 0.0575 |
| CAGACCAG | -0.155 |
| CCTGTGCA | -0.0839 |
| AGTCTAAT | -0.162 |
| GATTGACA | 0.171 |
| AGGGTCTG | -0.303 |
| ATCAGCAT | 0.133 |
| ATGAACCA | 0.0351 |
| CGACCTCA | 0.00561 |
| CCCTACGA | 0.041 |
| AAAAGTTT | -0.15 |

| Sequence | PBM E-score |
| --- | --- |
| AAGTGGGC | -0.0684 |
| ACGAGGAG | 0.184 |
| CATGTGTC | 0.0875 |
| AATATACC | 0.109 |
| ACCATACC | -0.287 |
| CCCAGAGA | -0.17 |
| GCATAAGC | -0.0794 |
| CTGCCCAC | -0.039 |
| AGACTCGG | -0.286 |
| ACTCCTAC | 0.0623 |
| ATACCAAG | -0.0413 |
| ACGTCGAC | 0.146 |
| ACCACTCT | -0.142 |
| CAACATTA | -0.00433 |
| CGAGCCCG | -0.174 |
| ACTTATCG | 0.143 |
| CCGGTTCC | -0.286 |
| TGCGAGAA | -0.164 |
| CCTACTAA | -0.0564 |
| CCCTAACC | -0.334 |
| TATGCTGA | 0.123 |
| ACTGCAAA | 0.108 |
| CCGTGGAA | 0.127 |
| CCTGGCAG | -0.147 |
| CACTTGTA | 0.102 |

A few values from the entries so far:
PBM E-score, ACGGTGGG reads 0.122
PBM E-score, AAATAAGC reads 0.0205
PBM E-score, ACTTATCG reads 0.143
PBM E-score, ATACCAAG reads -0.0413
PBM E-score, AGACTCGG reads -0.286

(continued)

| Sequence | PBM E-score |
| --- | --- |
| GCAGTGCA | -0.0471 |
| ACCACGGA | -0.0481 |
| ACTTTTCG | 0.0723 |
| TTAGAAAA | 0.0889 |
| CTGAGCTA | -0.0994 |
| TAACTGAA | -0.00678 |
| ATTAACAG | 0.0654 |
| ATATTGTG | 0.123 |
| CACACAAA | -0.00629 |
| GTGCGCGA | -0.0176 |
| CAGTTCAC | 0.147 |
| AGAGGCAC | -0.23 |
| ATGCCACG | -0.0938 |
| CAGTATCA | 0.0956 |
| GTCAGCTA | -0.148 |
| GTATGGCA | 0.0908 |
| AAAGTGAC | 0.343 |
| CCTAGTCA | -0.0597 |
| CTTCGAGA | -0.0943 |
| GTCAAAAA | 0.239 |
| GACAGTCC | 0.0568 |
| ACGACAAG | 0.215 |

Another view of part of the listing above:
Sequence	PBM E-score
GCAGTGCA	-0.0471
ACTTTTCG	0.0723
CCTAGTCA	-0.0597
CTTCGAGA	-0.0943

A section from further up, as a working copy:

| Sequence | PBM E-score |
| --- | --- |
| CACACAAA | -0.00629 |
| GTGCGCGA | -0.0176 |
